Laboratory results from patent publication US7595397B2, “Compounds which modulate the CB2 receptor” (Boehringer Ingelheim International GmbH, priority 2005, dated 2009).
At least one compound was matched to its structure with a doubt left.

Protein sequences, listed by entry. Tags and fused reporters are not part of them.
UniProt P34972, whole entry: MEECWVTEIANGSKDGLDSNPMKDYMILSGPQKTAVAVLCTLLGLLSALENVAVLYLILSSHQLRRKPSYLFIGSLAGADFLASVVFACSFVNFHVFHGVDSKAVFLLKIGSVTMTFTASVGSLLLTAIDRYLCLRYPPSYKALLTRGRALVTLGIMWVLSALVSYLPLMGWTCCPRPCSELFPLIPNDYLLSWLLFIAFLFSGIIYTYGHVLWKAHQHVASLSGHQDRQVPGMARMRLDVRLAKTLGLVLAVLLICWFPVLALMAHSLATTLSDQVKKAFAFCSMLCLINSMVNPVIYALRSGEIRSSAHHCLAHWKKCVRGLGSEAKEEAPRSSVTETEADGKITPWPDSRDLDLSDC

Biological target: T1, human CB2R (Homo sapiens, UniProt P34972)
T1 construct: host or cells: CHO cells
Assay: CB2R mediated modulation of cAMP synthesis
Format: cell-based
Settings: CHO cells expressing human CB2R; decrease of forskolin induced cAMP; found 'through the use of the above described assays'
Experimental: B. CB2R Mediated Modulation of cAMP Synthesis:
CHO cells expressing human CB2R (Euroscreen) were plated at a density of 5000 cells per well in 384 well plates and incubated overnight at 37° C. After removing the media, the cells were treated with test compounds diluted in stimulation buffer containing 1 mM IBMX, 0.25% BSA and 10 uM Forskolin. The assay was incubated for 30 minutes at 37° C. Cells were lysed and the cAMP concentration was measured using DiscoverX-XS cAMP kit, following the manufacturer's protocol. In this setting, agonists will decrease forskolin induced production of cAMP while inverse agonists will further increase forskolin induced production of cAMP. EC50 of agonists were calculated as follows. The maximal amount of cAMP produced by forskolin compared to the level of cAMP inhibited by 1 uM CP55940 is defined as 100%. The EC50 value of each test compound was determined as the concentration at which 50% of the forskolin-stimulated cAMP synthesis was inhibited. Data was analyzed using a four-parameter logistic model. (Model 205 of XLfit 4.0).

Compound: Cc1ccc(Cl)c(-c2ccc(CN3CCO[C@@H](c4ccccc4)C3)cc2)c1 [Example 190, (S)-4-(2′-Chloro-5′-methyl-biphenyl-4-ylmethyl)-2-phenyl-morpholine]
- agonistic activity: agonistic activity
